PubChem BioAssay AID686938, Drosophila RNAi Screening Center | 2013
The deposit covers about 23,000 reagents; shown is a random part of those with a known target gene and a result. In the full data, 75 (0.33%) were called active. 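Raw plate signals without normalisation; calls rest on plate z-scores that were not deposited; ratio present for only 364 wells.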 A number with no mark means an inactive call. The numbers tell different reagents against one gene apart. Names joined by + are all predicted targets of the reagent. Reagent sequences are not shown. The record does not give: the dose of the treatment.

Test: 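Knock-downs reducing store-operated calcium influx in Drosophila cells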 (primary screen)
System: Drosophila S2R+ cells
Reagents: long dsRNA against Drosophila genes, about 0.25 µg dsRNA per well, roughly 10,000 cells
Time to read-out: 5 days of knock-down before the calcium assay
Challenge: thapsigargin (SERCA pump blocker) to empty calcium stores; entry signal taken 4 min after adding it
Detection: 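Duplicate raw fluo-4 intensities per well from a plate reader, at rest and four minutes after thapsigargin emptied calcium stores; entry-to-rest ratio filled for only some wells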
Reading the numbers: calcium entry signal: higher = stronger calcium signal after store depletion; entry to resting ratio: higher = more calcium entry relative to resting level; resting calcium signal: higher = higher resting calcium signal
Rule for the call: 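Called when the plate z-score of the entry-to-rest ratio, mean of duplicates, falls below −3; wells with low overall dye signal (Fmax z below −2) or more than five off-targets excluded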
Meaning of the calls: active = strongly reduced calcium entry; inactive = no strong reduction

gene knocked down	dsRNA no.	calcium entry signal, replicate 1 (fluorescence units)	calcium entry signal, replicate 2 (fluorescence units)	entry to resting ratio	resting calcium signal, replicate 1 (fluorescence units)	resting calcium signal, replicate 2 (fluorescence units)
sstn	1	5.49e7	6.65e7		2.53e7	2.39e7
Spt20	1	2.23e7	3.05e7		1.46e7	1.83e7
Spt20	2	7.24e7	2.64e7		3.01e7	1.20e7
CG15876	1	2.73e7	3.13e7		1.24e7	1.33e7
CG4842	1	7.95e7	9.55e7		3.19e7	3.03e7
Ptp36E	1	5.47e7	4.15e7		2.38e7	1.83e7
oys	1	2.10e7	5.04e7		1.30e7	4.99e7
oys	2	5.02e7	3.79e7		2.11e7	1.72e7
Gycalpha99B	1	3.00e7	3.17e7		1.34e7	1.51e7
Amnionless	1	4.07e7	4.38e7		1.87e7	1.93e7
CG32195	1	4.44e7	4.54e7		2.01e7	2.40e7
CG15861	1	2.73e7	3.38e7		1.56e7	1.48e7
Desat1	1	3.16e7	3.57e7		1.94e7	2.14e7
rha	1	2.78e7	3.00e7		1.25e7	1.45e7
SmD3	1	1.43e7	3.70e7		1.04e7	1.67e7
ppk6	1	5.88e7	6.19e7		2.44e7	3.09e7
mia	1	3.06e7	3.71e7		1.47e7	1.67e7
spd-2	1	2.34e7	3.20e7		1.13e7	2.31e7
ng4	1	5.24e7	6.05e7	2.1	2.47e7	2.49e7
CG7378	1	5.10e7	4.88e7		2.30e7	1.94e7
otp	1	4.46e7	4.05e7		2.08e7	1.89e7
otp	2	4.44e7	4.46e7		2.09e7	1.83e7
gsb-n	1	2.10e7	4.04e7		1.11e7	1.75e7
gsb-n	2	3.28e7	3.17e7		1.74e7	1.50e7
CG34277 + CG31542	1	3.79e7	3.70e7		2.25e7	1.78e7
Pcyt2	1	3.17e7	2.85e7		1.51e7	1.40e7
Fibp	1	2.81e7	3.43e7		1.41e7	2.35e7
EcR	1	4.18e7	4.79e7		2.24e7	2.45e7
EcR	2	3.32e7			1.72e7	
Dci	1	4.37e7	3.56e7		2.54e7	1.66e7
CG13060	1	3.82e7	3.82e7		1.65e7	1.83e7
phu	1	3.39e7	2.95e7		1.71e7	1.56e7
Rab26	1	3.28e7	4.05e7		1.60e7	2.51e7
Rab26	2	2.04e7	3.27e7		9.48e6	1.50e7
Rab26	3	2.36e7	3.41e7		1.15e7	1.48e7
CG7394	1	3.06e7	3.18e7		1.67e7	1.39e7
CG12483	1	3.01e7	3.95e7		1.47e7	1.68e7
RpL37A	1	2.14e7	2.39e7		1.30e7	1.34e7
cid	1	4.47e7	3.84e7		2.17e7	2.02e7
cid	2	3.35e7	4.04e7		1.72e7	1.91e7
Vmat + CG13330	1	2.83e7	3.06e7		1.21e7	1.48e7
Tomosyn	1	4.19e7	4.34e7		2.12e7	2.13e7
Tomosyn	2	3.11e7	4.56e7		1.64e7	2.25e7
Tomosyn	3	4.12e7	3.95e7		1.81e7	1.76e7
Tomosyn	4	3.09e7	4.83e7		1.53e7	2.30e7
l(2)dtl	1	3.02e7			1.85e7	
c(3)G	1	2.81e7	2.44e7		1.35e7	1.08e7
Cpr60D	1	4.77e7	3.96e7		2.30e7	2.02e7
CG42521	1	1.47e7	2.02e7		8.38e6	9.85e6
Inx2	1	4.04e7	4.52e7		1.95e7	1.91e7
Jon65Aii	1	2.54e7	4.04e7		1.19e7	1.77e7
bgcn	1	4.56e7	5.47e7		2.19e7	2.40e7
bgcn	2	4.19e7	4.73e7		2.14e7	2.30e7
Mcm10	1	3.02e7			1.34e7	
CG30281	1	2.85e7			1.48e7	
CG18278 + CG30059	1	2.50e7	4.19e7		1.28e7	1.87e7
ACXB	1	4.88e7	3.05e7		2.24e7	1.51e7
TER94	1	3.47e7	2.32e7		2.06e7	1.53e7
